In PubChem BioAssay AID2685 (National Center for Advancing Translational Sciences (NCATS), 2010) one finds cell number change and AC50 data, which are given here for 16 compounds.

Molecules are shown by their SMILES. Some of the results follow. The main result of the screen is listed elsewhere. These columns were measured beside it and carry no call. The list favours compounds with an active or inconclusive main result. Potencies come from curve fits of mixed quality, noted in brackets.

The assay is described as follows: qHTS Assay for Lipid Storage Modulators in Drosophila S3 Cells.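 As to cell number change: cells counted by Cell Tracker Red CMTPX staining in the red channel.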 The following applies: BODIPY lipid droplet fluorescence, 18-24 h; for cell number change: measured here: cell count max response, cells fed with added oleic acid. Put shortly: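 Drosophila S3 cells loaded with oleic acid (400 uM, as added) and compounds at several concentrations; lipid droplets imaged by 488-nm laser-scanning cytometry, 500–530 nm intensity and object ratio to cell channel. Percent activity normalized to 20 uM Triacsin C.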
A general note: Quantitative high-throughput screening tests each substance at several concentrations.

Setting [1] is: measured here: lipid fluorescence (Fed channel) AC50, cells fed with added oleic acid.
Where [2] appears, read: measured here: cell number channel AC50, cells fed with added oleic acid.

With `O=C(NCCOc1cccc(Cl)c1Cl)c1cc(-n2cnnc2)ccc1Cl`, the cell number change is -15%. Moreover, the AC50 – broadly, the midpoint of the concentration-response curve, whichever way the signal moves – under setting [1] was 0.116 µM [falling, full curve, poor fit].
With `COc1ccc2c(c1)CCc1c(C(=O)Nc3c(C)nn(Cc4ccccc4)c3C)noc1-2`, the AC50 under setting [1] was 2.91 µM [rising, partial curve].
Take `Cc1ccc2[nH]c(=O)c(C(c3nnnn3CCc3ccccc3)N3CCOCC3)cc2c1` (stereo not drawn): the AC50 under setting [2] was 0.103 µM [rising, full curve, poor fit].
For the compound `CCCCc1ccc(NC(=S)N2CCC(O)CC2)cc1`, the cell number change is -7.06%. For the same compound, under setting [2], the AC50 is 0.13 µM [falling, single point]. Further, under setting [1], the AC50 is 5.17 µM [falling, single point].
Regarding `CSc1cccc(NC(=O)CCS(=O)(=O)c2cccc3nonc23)c1`, the cell number change is 15.8%.
Consider `O=C(CCCCCNc1nc(=S)[nH]c2ccccc12)NCCc1c[nH]c2ccccc12`, for which the cell number change is -26.9%. For the same compound, the AC50 under setting [1] was 29.1 µM [falling, single point].
Take `COc1ccc(NC(=O)CSc2nc(N)c(C(=O)Nc3ccc(N(C)C)cc3)s2)cc1`: the cell number change was 22.1%. Further, the AC50 under setting [1] was 0.366 µM [rising, single point].
For `CCCCCC(=O)NC(CC(=O)OC)c1ccc2c(c1)OCO2` (stereo not drawn), the cell number change is 50.2%. Further, the AC50 under setting [2] is 20.6 µM [rising, single point].
For the compound `O=C(c1ccc(-c2ccccc2Cl)o1)N1CCC1`, the AC50 is, setting by setting: under setting [2], 7.31 µM [falling, single point]; under setting [1], 6.51 µM [rising, single point].
For `CSC1=NCCN1C(=O)Cc1ccc(-c2ccccc2)cc1`, the cell number change is 44.7%. In addition, under setting [2], the half-maximal activity concentration (AC50) is 1.03 µM [rising, full curve]. In addition, the AC50 under setting [1] is 5.8 µM [rising, single point].
Consider `COc1ccc(OC)c(C(=O)c2ccccn2)c1`, for which the cell number change came out at 27.3%. Further, the AC50 under setting [1] is 3.26 µM [rising, full curve].
`Cc1ccc([N+](=O)[O-])cc1N`: the cell number change is 31.7%. Besides, the AC50 under setting [2] is 1.64 µM [rising, full curve, poor fit]. The AC50 under setting [1] is 16.4 µM [rising, single point].
Turning to `CC(C)NC(=O)CC1OC(=O)c2ccccc21` (stereo not drawn), the cell number change was -98.3%. The AC50 under setting [2] was 23.1 µM [falling, partial curve, poor fit]. Further, the AC50 under setting [1] was 23.1 µM [falling, partial curve].
As to `Cc1ccc(-n2nc(C)c(C(=O)O)c2-n2cccc2)cc1`, the cell number change is -23.8%. The AC50 under setting [1] is 0.13 µM [falling, full curve, poor fit].
Take `CC(C)(C)c1cc(-c2nc(N)nc(N)n2)cc(C(C)(C)C)c1`: the cell number change is -66.4%. In addition, the concentration at half-maximal activity (AC50) under setting [2] was 29.1 µM [falling, single point].
Regarding `CCCCCCNc1c(C(=O)OCC)c(=O)[nH]c2ccccc12`, the cell number change is -37.7%. For the same compound, the AC50 under setting [1] was 29.1 µM [falling, single point].
